Laboratory results reported in article PMC7705756.
Results are given in words; binding and its absence hold for the method and conditions named. For some of these results: Binding seen in cells or lysates may run through a third protein. Some results given as binding are weak or reduced against the parent protein; the word gives no strength.

Sequences of proteins named here, by UniProt entry; tags and fusion partners are left off.
UniProt P25440: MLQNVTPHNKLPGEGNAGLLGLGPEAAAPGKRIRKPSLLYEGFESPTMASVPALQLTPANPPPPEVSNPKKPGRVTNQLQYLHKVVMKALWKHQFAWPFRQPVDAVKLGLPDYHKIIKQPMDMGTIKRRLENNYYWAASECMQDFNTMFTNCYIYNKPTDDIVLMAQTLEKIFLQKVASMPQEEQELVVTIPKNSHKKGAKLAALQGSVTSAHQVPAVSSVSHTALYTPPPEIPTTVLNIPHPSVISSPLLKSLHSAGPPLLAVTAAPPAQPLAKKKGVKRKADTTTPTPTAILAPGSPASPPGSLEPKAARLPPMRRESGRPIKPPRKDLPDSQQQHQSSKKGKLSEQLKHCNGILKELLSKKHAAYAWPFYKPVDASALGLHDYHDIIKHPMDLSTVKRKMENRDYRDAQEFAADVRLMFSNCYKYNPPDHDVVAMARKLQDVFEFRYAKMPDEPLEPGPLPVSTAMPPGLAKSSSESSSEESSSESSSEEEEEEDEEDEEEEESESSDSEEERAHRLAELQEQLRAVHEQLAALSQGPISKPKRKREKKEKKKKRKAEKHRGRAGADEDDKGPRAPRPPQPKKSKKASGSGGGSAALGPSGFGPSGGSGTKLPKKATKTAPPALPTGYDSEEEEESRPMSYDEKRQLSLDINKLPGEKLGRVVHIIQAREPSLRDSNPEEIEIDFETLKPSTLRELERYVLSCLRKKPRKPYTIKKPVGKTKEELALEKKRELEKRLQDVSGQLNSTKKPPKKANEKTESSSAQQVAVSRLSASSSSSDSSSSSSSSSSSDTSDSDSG
UniProt P51532: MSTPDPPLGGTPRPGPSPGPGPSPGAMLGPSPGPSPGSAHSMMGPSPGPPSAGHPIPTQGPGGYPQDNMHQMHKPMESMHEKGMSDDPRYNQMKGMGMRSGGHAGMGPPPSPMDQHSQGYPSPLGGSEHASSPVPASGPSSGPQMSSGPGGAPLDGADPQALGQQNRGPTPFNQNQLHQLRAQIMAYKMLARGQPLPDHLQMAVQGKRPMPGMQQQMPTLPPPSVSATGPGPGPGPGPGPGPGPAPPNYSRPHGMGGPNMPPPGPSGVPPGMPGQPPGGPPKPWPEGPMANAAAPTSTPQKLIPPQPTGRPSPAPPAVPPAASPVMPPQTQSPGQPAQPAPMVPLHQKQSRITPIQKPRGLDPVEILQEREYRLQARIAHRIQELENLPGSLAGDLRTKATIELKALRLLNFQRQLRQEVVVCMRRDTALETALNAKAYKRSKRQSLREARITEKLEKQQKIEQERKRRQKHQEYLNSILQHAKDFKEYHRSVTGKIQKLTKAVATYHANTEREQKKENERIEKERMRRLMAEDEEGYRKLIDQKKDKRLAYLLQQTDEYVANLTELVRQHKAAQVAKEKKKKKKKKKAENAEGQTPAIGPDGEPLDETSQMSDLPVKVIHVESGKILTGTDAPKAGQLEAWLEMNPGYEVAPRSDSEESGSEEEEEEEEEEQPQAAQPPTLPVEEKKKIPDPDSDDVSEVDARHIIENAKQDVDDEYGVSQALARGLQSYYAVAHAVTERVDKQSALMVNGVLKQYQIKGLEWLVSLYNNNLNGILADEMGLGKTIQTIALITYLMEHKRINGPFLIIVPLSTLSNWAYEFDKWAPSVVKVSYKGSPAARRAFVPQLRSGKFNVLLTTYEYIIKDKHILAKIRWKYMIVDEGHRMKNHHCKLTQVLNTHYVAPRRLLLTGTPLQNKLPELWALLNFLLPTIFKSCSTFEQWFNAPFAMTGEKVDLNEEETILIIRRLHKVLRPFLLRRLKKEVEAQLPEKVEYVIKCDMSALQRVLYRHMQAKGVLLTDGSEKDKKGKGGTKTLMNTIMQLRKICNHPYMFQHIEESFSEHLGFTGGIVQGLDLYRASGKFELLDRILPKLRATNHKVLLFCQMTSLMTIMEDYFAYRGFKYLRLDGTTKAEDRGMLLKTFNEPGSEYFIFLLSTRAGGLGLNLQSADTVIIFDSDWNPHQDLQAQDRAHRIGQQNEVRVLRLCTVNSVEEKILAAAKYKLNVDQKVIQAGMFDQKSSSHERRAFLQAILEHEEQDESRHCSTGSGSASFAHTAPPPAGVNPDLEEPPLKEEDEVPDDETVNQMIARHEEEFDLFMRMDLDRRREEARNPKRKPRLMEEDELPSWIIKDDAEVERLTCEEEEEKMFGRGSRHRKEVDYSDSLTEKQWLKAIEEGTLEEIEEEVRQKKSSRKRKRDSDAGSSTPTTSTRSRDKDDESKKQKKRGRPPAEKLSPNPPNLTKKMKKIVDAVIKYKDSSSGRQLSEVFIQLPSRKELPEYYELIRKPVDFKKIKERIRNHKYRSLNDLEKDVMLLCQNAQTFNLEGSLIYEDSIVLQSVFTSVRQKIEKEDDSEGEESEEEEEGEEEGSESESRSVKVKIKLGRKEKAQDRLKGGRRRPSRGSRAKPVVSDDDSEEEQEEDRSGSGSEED

Key:
[1] = target: T1, C-terminal end of USP24 (a.a. 2078-2620), yeast two-hybrid bait (human) (UniProt Q9UPU5); test: two-hybrid; yeast two-hybrid screen with the C-terminal end of USP24 (a.a. 2078-2620) as bait; no methods given
T1 sequence: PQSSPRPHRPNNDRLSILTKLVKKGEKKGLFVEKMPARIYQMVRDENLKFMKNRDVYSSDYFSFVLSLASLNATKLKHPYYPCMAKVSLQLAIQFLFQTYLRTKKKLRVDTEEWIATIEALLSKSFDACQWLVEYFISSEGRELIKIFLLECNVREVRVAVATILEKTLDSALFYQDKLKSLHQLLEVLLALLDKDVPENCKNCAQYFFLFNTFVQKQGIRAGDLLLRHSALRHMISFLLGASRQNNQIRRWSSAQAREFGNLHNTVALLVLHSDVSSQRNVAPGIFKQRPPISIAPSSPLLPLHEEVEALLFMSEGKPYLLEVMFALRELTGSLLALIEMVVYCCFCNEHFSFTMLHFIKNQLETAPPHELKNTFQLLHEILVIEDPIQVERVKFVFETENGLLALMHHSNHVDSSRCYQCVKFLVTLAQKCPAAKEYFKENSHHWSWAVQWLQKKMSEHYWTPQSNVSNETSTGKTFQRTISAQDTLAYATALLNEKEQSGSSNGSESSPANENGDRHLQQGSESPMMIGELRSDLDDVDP

[2] = target: endogenous USP24 (mouse embryonic fibroblasts) (mouse (endogenous in MEFs)) (UniProt B1AY13); test: co-IP; lysate of mouse embryonic fibroblasts (MEFs), co-IP of USP24 with BRD7 or HA-tagged proteins (Suppl. Fig. 3)
[3] = target: endogenous USP24 (H1299 cells) (human (endogenous in H1299)) (UniProt Q9UPU5); test: co-IP; H1299 cell lysate, IP with anti-USP24 (1:200, 4 °C, 12 h), protein G-Sepharose, Western blot with anti-BRD7 or anti-HA

Q: How did the binding [1] turn out when “BRD2 (yeast two-hybrid prey) (from UniProt P25440 1-801)” was run?
A: binds

Q: What does the source list for HA-BRG1 (from UniProt P51532 1-1647)?
A: binding [2]: binds; binding [3]: binds

B1: endogenous BRD7 (mouse embryonic fibroblasts) (protein, UniProt O88665 1-651)
chain: MGKKHKKHKSDRHFYEEYVEKPLKLVLKVGGSEVTELSTGSSGHDSSLFEDRSDHDKHKDRKRKKRKKGEKQAPGEEKGRKRRRVKEDKKKRDRDRAENEVDRDLQCHVPIRLDLPPEKPLTSSLAKQEEVEQTPLQEALNQLMRQLQRKDPSAFFSFPVTDFIAPGYSMIIKHPMDFSTMKEKIKNNDYQSIEELKDNFKLMCTNAMIYNKPETIYYKAAKKLLHSGMKILSQERIQSLKQSIDFMSDLQKTRKQKERTDACQSGEDSGCWQREREDSGDAETQAFRSPAKDNKRKDKDVLEDKWRSSNSEREHEQIERVVQESGGKLTRRLANSQCEFERRKPDGTTTLGLLHPVDPIVGEPGYCPVRLGMTTGRLQSGVNTLQGFKEDKRNRVTPVLYLNYGPYSSYAPHYDSTFANISKDDSDLIYSTYGEDSDLPNNFSISEFLATCQDYPYVMADSLLDVLTKGGHSRSLQDLDMSSPEDEGQTRALDTAKEAEITQIEPTGRLESSSQDRLTALQAVTTFGAPAEVFDSEEAEVFQRKLDETTRLLRELQEAQNERLSTRPPPNMICLLGPSYREMYLAEQVTNNLKELTQQVTPGDVVSIHGVRKAMGISVPSPIVGNSFVDLTGECEEPKETSTAECGPDAS
Q: Which binding [2] does the source give for B1 here?
A: binds
